Test results published in patent US20150110737A1.
No constants are given. Whether binding was seen depends on the method and setting. Binding seen in cells or lysates may run through a third protein. Some results given as binding are weak or reduced against the parent protein; the word gives no strength.

Protein sequences, listed by entry. Tags and fused reporters are not part of them. Residues count along the entry.
UniProt P97378, residues 24-874: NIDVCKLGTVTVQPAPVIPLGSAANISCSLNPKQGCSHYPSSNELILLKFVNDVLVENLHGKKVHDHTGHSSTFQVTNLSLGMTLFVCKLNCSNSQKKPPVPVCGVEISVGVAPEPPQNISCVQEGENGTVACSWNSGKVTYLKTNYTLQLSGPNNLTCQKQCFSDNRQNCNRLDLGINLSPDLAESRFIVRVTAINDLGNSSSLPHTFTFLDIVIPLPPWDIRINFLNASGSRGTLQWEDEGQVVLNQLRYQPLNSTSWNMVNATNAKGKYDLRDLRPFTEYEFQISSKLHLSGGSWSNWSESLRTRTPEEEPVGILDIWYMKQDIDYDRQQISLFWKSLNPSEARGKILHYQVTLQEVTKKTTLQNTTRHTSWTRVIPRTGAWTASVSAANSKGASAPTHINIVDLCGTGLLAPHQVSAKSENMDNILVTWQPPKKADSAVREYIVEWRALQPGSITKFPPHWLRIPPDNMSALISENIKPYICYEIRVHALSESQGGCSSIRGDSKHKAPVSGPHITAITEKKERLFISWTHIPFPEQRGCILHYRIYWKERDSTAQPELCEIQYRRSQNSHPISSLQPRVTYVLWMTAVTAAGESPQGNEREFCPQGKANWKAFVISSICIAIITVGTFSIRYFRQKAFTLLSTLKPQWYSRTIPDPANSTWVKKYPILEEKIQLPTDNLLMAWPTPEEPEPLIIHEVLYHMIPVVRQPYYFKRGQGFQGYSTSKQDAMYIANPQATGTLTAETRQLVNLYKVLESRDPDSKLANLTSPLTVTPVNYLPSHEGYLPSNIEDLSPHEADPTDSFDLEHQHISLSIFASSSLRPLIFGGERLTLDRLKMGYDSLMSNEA

Biological target: T1, IL-27Rα (mouse) (UniProt O70394)
T1 sequence (looked up): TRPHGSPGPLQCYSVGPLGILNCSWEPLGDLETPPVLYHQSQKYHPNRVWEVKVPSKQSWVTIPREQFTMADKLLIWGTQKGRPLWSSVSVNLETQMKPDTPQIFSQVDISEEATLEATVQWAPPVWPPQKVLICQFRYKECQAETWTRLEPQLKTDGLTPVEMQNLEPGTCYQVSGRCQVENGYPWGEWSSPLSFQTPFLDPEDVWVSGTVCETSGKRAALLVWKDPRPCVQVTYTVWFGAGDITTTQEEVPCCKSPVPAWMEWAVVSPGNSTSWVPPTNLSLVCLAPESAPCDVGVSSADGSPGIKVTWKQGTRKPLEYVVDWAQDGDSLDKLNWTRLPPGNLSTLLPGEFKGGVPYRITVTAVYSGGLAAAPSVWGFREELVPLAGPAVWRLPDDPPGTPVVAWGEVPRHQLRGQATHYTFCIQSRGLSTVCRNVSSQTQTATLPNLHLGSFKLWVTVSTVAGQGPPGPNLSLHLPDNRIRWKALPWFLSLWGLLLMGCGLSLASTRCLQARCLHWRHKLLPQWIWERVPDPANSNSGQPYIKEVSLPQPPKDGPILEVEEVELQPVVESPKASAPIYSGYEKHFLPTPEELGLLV
Assay: reciprocal co-immunoprecipitation from activated B-cells

binding: binds
Substance: IL-12Rβ2 (from UniProt P97378 24-874) (receptor)
